PubChem BioAssay AID1794845 (National Center for Advancing Translational Sciences (NCATS), 2023)
The whole screen tested about 6,900 compounds, of which fewer than 10 were called active. Calls follow the shape of the dose curve; as a rule, active = well fitted curve in the direction sought with a large enough effect; inconclusive = small, poorly fitted or top-dose-only effect, or another doubt; inactive = no such curve, though single readings can be large or run the other way. Some of the results follow.

Amino acid sequences for entries named in this document (tags omitted). A change or cut given only in a name is not applied to a line headed by its entry.
UniProt C7C422: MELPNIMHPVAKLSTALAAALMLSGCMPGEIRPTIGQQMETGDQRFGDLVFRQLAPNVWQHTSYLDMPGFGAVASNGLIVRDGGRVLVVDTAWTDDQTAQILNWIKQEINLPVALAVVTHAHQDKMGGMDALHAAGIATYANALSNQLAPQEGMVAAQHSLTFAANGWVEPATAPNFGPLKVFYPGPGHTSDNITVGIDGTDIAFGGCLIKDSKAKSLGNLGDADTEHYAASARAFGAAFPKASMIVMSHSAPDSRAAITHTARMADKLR

These compounds were tested against Metallo-beta-lactamase type 2 (Klebsiella pneumoniae) (UniProt C7C422) (assay: qHTS to identify inhibitors of the New Delhi Metallo-beta-lactamase (NDM): primary screen against the NCATS Gemini Collection). Conditions: NDM-1 enzyme, meropenem hydrolysis, absorbance 300 nm; at 38.4 µM (top of the series) unless noted.
Procedure, shortened: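 Meropenem hydrolysis (50 uM final) by 2 nM NDM-1 read as 300 nm absorbance after 30 min, following >30 min compound–enzyme preincubation in HEPES pH 7.0 with 1 uM ZnSO4 and 0.01% Tween20.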
Also: % of control where 0% means no effect.

Activity % (negative = inhibition), inactive:
Cc1ccsc1C(=O)N1CC(Oc2ccccc2-c2nc(-c3cnccn3)no2)C1 0.893%
O=C(CC1CCCC1)N1CCCC(c2nn[nH]n2)C1 (stereo not given) -0.11%
COCCC1(N(C)C)CCN(C(=O)c2ccnn2C)CC1 -1.17%
Cc1cccc(C(=O)N2C[C@H]3OC(=O)N(CCCN4CCOCC4)[C@H]3C2)c1 4.71%
CC(C)c1ccc(N2CC(C(=O)N(C)C3CCSCC3)CC2=O)cc1 (stereo not given) 28.5%
CCC1(C(=O)NCCCN2CCCC2=O)CCCCC(=O)N1 (stereo not given) -7.98%
CO[C@H]1[C@H](NC(=O)c2ccc(C)c(O)c2)c2ccccc2C12CCNCC2 -5.26%
CC(C(N)=O)N1CCn2nc(CCC(=O)N3CCOCC3)cc2C1 (stereo not given) -0.0539%
CCn1cc(CN2CC[C@H](CNC(=O)COC)[C@H](N(C)C)C2)c(C)n1 -1.7%
CN1C(=O)CC(C(=O)O)C12CCN(Cc1cccc(Cn3cccn3)c1)CC2 (stereo not given) 1.24%
CCn1ccc2oc(C)c(C(=O)N3CCN(c4cccc(C)c4C)CC3)c2c1=O 2.21%
O=C1CCC(C(=O)N2CCSCC2)CN1CCc1cccc(F)c1 (stereo not given) 6.53%
O=C(Nc1ccc2c(c1)OCCO2)N1CCCCC1c1nc(CCOCC2CC2)no1 (stereo not given) 3.52%
Cc1ccc(C(=O)N2CCC3(CC2)CC(c2ccccc2)C(=O)N3C)s1 (stereo not given) -0.0173%
CN(C)C[C@@H]1CN(c2ncccn2)C[C@H]1NS(=O)(=O)c1cccnc1 1.09%
Cc1nn(C)c(C)c1-c1nc2cc(S(=O)(=O)N3CCCC3)ccc2n1C 11.1%
Cc1nc2c(NC3CCN(C(=O)c4cnccn4)CC3)cccn2n1 12.6%
CN(Cc1ccc(OC(F)(F)F)cc1)Cc1ccccc1C(F)(F)F 25.6%
COCc1ncc(C)n1CCNC(=O)c1cc(-c2cc(C)ccc2C)n[nH]1 -2.64%
O=C(NCc1ccc2c(c1)OCO2)c1nc(-c2ccc(F)cc2)c2cnccn12 20.3%
COCCC1(NC(=O)C2CC2)CCN(C(=O)c2ccccn2)CC1 5.91%
CC(C)c1ccc(N2C(=O)N[C@@H]3CCN(C(=O)C4CCCC4)[C@@H]3C2=O)cc1 -1.05% [at 57.5 µM]
COCCCNC(=O)c1cc(C)nc2onc(C3CCCNC3)c12 (stereo not given) 2.95%
CCCNC(=O)c1c(-c2ccccc2)cc(=O)n2c1CCC2 6.01%
O=C(c1c[nH]c2ncccc12)N1CCC(Cc2ccccc2)CC1 -0.941% [at 57.5 µM]
CN1CCC(OC2CCN(C(=O)c3cccc(F)c3)CC2)CC1 0.673%
CNC(=O)c1cc[nH]c1C1CCCN(C(=O)c2ccc(Cn3cncn3)o2)C1 (stereo not given) 3.21%
CC(C)CCN1CCC2(C1)C(=O)N(c1ccccc1)c1ccccc12 (stereo not given) -3.65%
CCn1c2c(c(=O)n1-c1ccccc1)CCN(C(=O)C1CCC1)C2 -2.87% [at 57.5 µM]
CCc1noc([C@@H]2CC(F)(F)CN2C(=O)c2ccco2)n1 23.1%
O=C(c1c[nH]c(=O)[nH]1)N1CC[C@@H]2[C@@H](CCC(=O)N2CC2CCNCC2)C1 -0.111%
COCCc1noc(CC2CCOC3(CCN(C(=O)C4CCOCC4)CC3)C2)n1 (stereo not given) -1.21%
Cc1oc(-c2ccccc2)nc1CN1CCCC(C(=O)N2CCC(c3nc(C(=O)N4CCCC4)c(C)o3)CC2)C1 (stereo not given) 2.21%
O=C(NC1CC1)[C@@H]1CN(CCCc2ccccc2)C[C@H]1CO 19.1%
COCc1nc(CCNS(=O)(=O)c2cccc(OC)c2)no1 -10.4%
CC(C)CN1CCN(c2nc(CCN)nc3ccccc23)CC1CCO (stereo not given) 6.5%
Cc1cc(C(=O)N2CCC(OCCOc3ccc(F)cc3)CC2)nn1C -0.543%
O=C1NC2(Cc3ccccc31)CN([S+](=O)([O-])c1cccs1)C2 -5.09%
COc1cc(=O)n2c(c1C(=O)NC1CCCCCC1)CCCC2 49.1%
O=C(O)c1cc(-c2ccncc2)cc(S(=O)(=O)N2CCCCCC2)c1 45.2%
O=C1CO[C@H]2CCN(Cc3ccccn3)CC[C@@H]2N1c1ccccc1 6.2% [at 57.5 µM]
COc1ccccc1CC(=O)N1CCCc2ncc(C(=O)Nc3cccc(Cl)c3)cc21 2.72% [at 57.5 µM]
O=C1c2cc(N3CCOCC3)nc(-c3cccc(CO)c3)c2CN1c1ccccc1 8.58% [at 57.5 µM]
COc1ncccc1-c1n[nH]c2c1CC(=O)N(Cc1ccccc1)C2 22.7% [at 57.5 µM]
CN1CCN(CCCNC(=O)C2(CCO)CCN(Cc3ccccc3)C2)CC1 (stereo not given) -11.1%
CC(O)CCNS(=O)(=O)c1ccc2c(c1)CN(C(=O)c1ccon1)CC2 (stereo not given) 16.7%
COc1ccc2[nH]c(CNc3cc(C4CC(N)C4)nc(C)n3)cc2c1 (stereo not given) 3.15%
COc1ccc(CN2CCN(C(=O)[C@H]3CCC[C@@H](O)C3)CC2=O)cc1 4.05%
CC1(C)[C@H](Cc2cc(COc3ccccc3)on2)C[C@@H]1NC1CCC1 -3.56% [at 57.5 µM]
CN1C(=O)CS(=O)C12CCN(C(=O)C1(c3ccccc3)CC1)CC2 (stereo not given) -1.38%
COCCNC(=O)C[C@@H]1C[C@@H](C(C)C)[C@H](CNC(=O)c2cnccn2)C=C1C 2.94% [at 57.5 µM]
CC(=O)N1CCC([C@@H]2CN(Cc3cccnc3)C[C@H]2CO)CC1 -0.828%
O=C(c1cccc([N+](=O)[O-])c1)N1CCc2c(c3ccccc3n2CC2CC2)C1 15.4%
COc1ccccc1OCCNC(=O)c1cn2ccnc(-c3ccc(C)cc3)c2n1 5.37%
CC(=O)NC1(C)CCN(Cc2cnc(-c3ccc4c(ccn4C)c3)s2)CC1 12.1% [at 57.5 µM]

Structural class, the compounds so far containing a furan ring, fused or not.
Activity % (negative = inhibition), inactive:
CCn1ccc2oc(C)c(C(=O)N3CCN(c4cccc(C)c4C)CC3)c2c1=O 2.21%
CNC(=O)c1cc[nH]c1C1CCCN(C(=O)c2ccc(Cn3cncn3)o2)C1 (stereo not given) 3.21%
CCc1noc([C@@H]2CC(F)(F)CN2C(=O)c2ccco2)n1 23.1%
